We go through four molecules from PMC6850780.

By UniProt entry, the sequences of proteins in these tests, tags left out. Where a name states a change or a piece, a line headed by the entry shows the natural chain unless it says otherwise.
UniProt P62330: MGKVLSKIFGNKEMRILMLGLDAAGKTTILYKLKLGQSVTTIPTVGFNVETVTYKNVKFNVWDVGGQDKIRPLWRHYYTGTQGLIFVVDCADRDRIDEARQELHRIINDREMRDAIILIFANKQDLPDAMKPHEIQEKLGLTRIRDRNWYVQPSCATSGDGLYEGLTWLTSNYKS
UniProt P62331: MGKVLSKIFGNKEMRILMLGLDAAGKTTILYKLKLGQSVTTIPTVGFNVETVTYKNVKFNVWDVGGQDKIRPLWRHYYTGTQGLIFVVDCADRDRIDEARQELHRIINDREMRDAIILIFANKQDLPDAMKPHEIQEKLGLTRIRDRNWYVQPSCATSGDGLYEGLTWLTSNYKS

Read-outs that look alike come from different tables or passages of the source. Results are given in words; binding and its absence hold for the method and conditions named. In cells and extracts the contact can be indirect. Some entries that bind do so weakly or less than the wild type.

Test [1] has as its target ARF6 (T27N)-CFP, mimicking ARF6-GDP (UniProt P62330). The experiment in a line: co-IP; NG108 cells co-transfected with Halo-tagged Sig-1R constructs and ARF6-CFP constructs; lysis in 50 mM Tris pH 7.4, 150 mM NaCl, 1% Nonidet P-40; IP with rabbit anti-EGFP/EYFP/ECFP and Dynabeads Protein G at 4°C overnight; western blot. In general terms: Immunoblotting shows a protein as a band on a membrane.

Test [2] addresses ADP-ribosylation factor 6 (ARF6), endogenous in mouse midbrain (mouse (endogenous in midbrain)) (UniProt P62331). Nature of the test: co-IP; mouse midbrain lysate (wildtype or Sig-1R KO) in 50 mM Tris pH 7.4, 150 mM NaCl, 0.1% lauryl maltose neopentyl glycol; IP with anti-ARF6 antibody and Dynabeads Protein G at 4°C overnight; blot for Sig-1R; also after in vivo cocaine (15 mg/kg i.p.; co-IP attenuated) with or without BD1063 (10 mg/kg s.c.).

Test [3] concerns the target ARF6 (WT)-CFP, ADP-ribosylation factor 6 wild type fused to cyan fluorescent protein (UniProt P62330). The experiment in a line: co-IP; NG108 cells co-transfected with Halo-tagged Sig-1R constructs and ARF6-CFP constructs; lysis in 50 mM Tris pH 7.4, 150 mM NaCl, 1% Nonidet P-40; IP with rabbit anti-EGFP/EYFP/ECFP and Dynabeads Protein G at 4°C overnight; western blot.
Test [4] has as its target ARF6 (T27N)-CFP, mimicking ARF6-GDP (UniProt P62330). Described as above. This is another data set of the same source.

For “Halo-Sig-1R (61-223) (from UniProt O55242-1 61-223) (domain or fragment)”, in test [1], the binding result is on record as “binds”.

For “sigma-1 receptor (Sig-1R), endogenous in mouse midbrain (from UniProt O55242-1 1-223)”, the binding result in test [2] is “binds”.

Regarding “Halo-tagged sigma-1 receptor (Halo-Sig-1R), full-length with N-terminal Halo tag (from UniProt O55242-1 1-223)”, the binding entry in test [3] is listed as “binds”.

B1: Sig-1R (1-60)-Halo (domain or fragment, UniProt O55242-1 1-60)
chain: MPWAAGRRWAWITLILTIIAVLIQAAWLWLGTQNFVFSREEIAQLARQYAGLDHELAFSR
With B1, the binding result in test [4] is listed as “no binding”.
